Assay results taken from US4988814A, “Tertiary alkyl functionalized piperazine derivatives” (American Home Products Corp., priority 1989, dated 1991).
For at least one compound, name, drawing or mass did not settle the structure.

Sequences of proteins named here, by UniProt entry; tags and fusion partners are left off.
UniProt P61169, whole entry: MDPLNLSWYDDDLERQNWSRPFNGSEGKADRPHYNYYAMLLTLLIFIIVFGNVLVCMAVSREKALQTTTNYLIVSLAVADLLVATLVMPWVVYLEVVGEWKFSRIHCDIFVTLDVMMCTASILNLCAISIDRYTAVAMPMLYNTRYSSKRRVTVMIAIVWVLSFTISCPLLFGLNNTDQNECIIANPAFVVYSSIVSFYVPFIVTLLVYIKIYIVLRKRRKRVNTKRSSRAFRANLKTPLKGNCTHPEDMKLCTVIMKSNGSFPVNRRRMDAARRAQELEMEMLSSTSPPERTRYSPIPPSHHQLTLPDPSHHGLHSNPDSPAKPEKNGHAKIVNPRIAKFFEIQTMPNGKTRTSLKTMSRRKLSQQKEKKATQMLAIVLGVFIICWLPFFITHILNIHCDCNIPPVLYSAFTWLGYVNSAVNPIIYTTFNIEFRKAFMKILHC

Target: T1, D2 dopamine receptor (Rattus norvegicus, UniProt P61169)
T1 construct: from tissue; host or cells: homogenized limbic brain tissue
Assay: D2 dopamine receptor binding, limbic brain tissue incubated with ^3 H-spiroperiodol
Procedure: The D2 dopamine receptor binding study was in accordance with a modification of the procedure of Field et al., Brain Res., 136, pp. 578-584 (1977) and Yamamura et al., eds., Neurotransmitter Receptor Binding, Raven Press, N.Y. (1978), wherein homogenized limbic brain tissue is incubated with ^3 H-spiroperiodol and various concentrations of test compounds, filtered and washed and shaken with Hydrofluoro scintillation cocktail (National Diagnostics) and counted in a Packard 460CD scintillation counter.

Structure (SMILES): COc1ccccc1N1CCN(CC(Cc2ccccc2)C(=O)NC(C)(C)C)CC1 (stereo not shown) [Example 14, N-Tertiary-butyl 2-[[4-(2-methoxyphenyl)piperazinyl]methyl]-3-phenyl-propanamide]
- D2 receptor binding (in words): very weak
